Reference: doi:10.1101/2025.05.04.652107
Results are given in words; binding and its absence hold for the method and conditions named. Binding seen in cells or lysates may run through a third protein. Some results given as binding are weak or reduced against the parent protein; the word gives no strength.

Chains of the proteins cited; added tags and fusions are not shown.
UniProt Q07014: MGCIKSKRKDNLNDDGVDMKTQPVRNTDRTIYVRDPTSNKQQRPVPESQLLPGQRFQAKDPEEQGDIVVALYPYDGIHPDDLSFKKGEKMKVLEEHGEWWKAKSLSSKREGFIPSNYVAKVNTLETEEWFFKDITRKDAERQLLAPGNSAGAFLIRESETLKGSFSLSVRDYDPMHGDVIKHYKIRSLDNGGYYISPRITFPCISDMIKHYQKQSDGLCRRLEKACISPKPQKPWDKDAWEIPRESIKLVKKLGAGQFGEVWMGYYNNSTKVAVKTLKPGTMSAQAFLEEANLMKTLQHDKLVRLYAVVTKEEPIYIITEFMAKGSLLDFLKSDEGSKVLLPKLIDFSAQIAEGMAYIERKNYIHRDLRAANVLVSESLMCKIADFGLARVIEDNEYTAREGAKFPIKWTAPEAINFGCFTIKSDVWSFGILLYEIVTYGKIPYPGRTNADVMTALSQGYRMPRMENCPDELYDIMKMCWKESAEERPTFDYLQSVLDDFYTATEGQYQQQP

What was measured:
[1] = molecular target: T1, Sialin/Sialin2 (NRK cells) (rat (endogenous in NRK-52E)) (UniProt Q5Q0U0); experiment: proximity ligation
T1 sequence: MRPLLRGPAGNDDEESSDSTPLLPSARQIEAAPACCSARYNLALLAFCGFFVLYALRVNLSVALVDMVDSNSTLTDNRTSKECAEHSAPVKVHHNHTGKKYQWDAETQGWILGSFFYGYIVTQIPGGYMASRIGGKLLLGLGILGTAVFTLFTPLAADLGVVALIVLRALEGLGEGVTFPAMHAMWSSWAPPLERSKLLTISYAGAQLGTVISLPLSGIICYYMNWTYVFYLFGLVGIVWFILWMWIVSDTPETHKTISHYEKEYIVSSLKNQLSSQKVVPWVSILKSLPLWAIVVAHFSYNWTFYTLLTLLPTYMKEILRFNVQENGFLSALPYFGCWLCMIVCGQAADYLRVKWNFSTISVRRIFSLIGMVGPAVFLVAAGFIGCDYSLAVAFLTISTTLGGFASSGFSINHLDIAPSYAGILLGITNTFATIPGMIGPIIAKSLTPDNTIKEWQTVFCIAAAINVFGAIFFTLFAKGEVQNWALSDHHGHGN

[2] = molecular target: T2, Sialin/Sialin2 (human cells) (human (endogenous in HeLa and HUVEC)) (UniProt Q9NRA2); experiment: proximity ligation
T2 sequence: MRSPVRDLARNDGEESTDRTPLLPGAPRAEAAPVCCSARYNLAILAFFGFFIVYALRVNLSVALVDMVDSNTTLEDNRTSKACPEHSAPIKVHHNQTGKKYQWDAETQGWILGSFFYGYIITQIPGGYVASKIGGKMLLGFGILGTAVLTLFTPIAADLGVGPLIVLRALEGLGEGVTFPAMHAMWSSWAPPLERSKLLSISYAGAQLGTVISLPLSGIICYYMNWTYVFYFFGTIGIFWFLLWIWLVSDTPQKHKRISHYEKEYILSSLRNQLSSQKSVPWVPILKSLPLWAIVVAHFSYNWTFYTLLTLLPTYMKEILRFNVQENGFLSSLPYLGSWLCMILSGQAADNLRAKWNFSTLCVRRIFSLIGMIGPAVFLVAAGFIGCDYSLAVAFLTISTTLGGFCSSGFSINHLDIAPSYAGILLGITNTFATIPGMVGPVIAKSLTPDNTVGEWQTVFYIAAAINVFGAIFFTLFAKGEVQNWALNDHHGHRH

## Lyn kinase (NRK cells) (from UniProt Q07014 1-512) (enzyme)
[1]
  binding: binds

## epidermal growth factor receptor (EGFR) (human cells) (from UniProt P00533 25-1210)
[2]
  binding: binds
